One experiment deals with T1, GST-POP2 (human) (UniProt Q56P42).
T1 sequence: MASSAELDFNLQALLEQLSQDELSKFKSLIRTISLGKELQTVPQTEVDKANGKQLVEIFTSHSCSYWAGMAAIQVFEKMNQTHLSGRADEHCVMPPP
Kind of experiment: pull-down; immobilized GST-POP2 incubated with cleared lysates of LPS-treated (4 h) THP-1 cells or iBMDM for 16 h at 4 °C; 50 mM HEPES pH 7.4, 120 mM NaCl, 10% glycerol, 2 mM EDTA, 0.5% Triton X-100; immunoblot; only the target purified. (In general: A western blot detects proteins with antibodies after separation by electrophoresis.)

The chains behind the UniProt entries cited, without tags or fusion partners.
UniProt Q9ULZ3: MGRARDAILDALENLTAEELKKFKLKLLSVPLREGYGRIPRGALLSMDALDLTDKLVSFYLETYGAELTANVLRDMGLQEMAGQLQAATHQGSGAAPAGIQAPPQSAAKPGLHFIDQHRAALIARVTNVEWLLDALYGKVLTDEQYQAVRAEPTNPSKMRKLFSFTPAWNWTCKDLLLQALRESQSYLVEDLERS

The target of experiment [1] is ASC (human, endogenous in THP-1 cells) (human (endogenous in THP-1)) (UniProt Q9ULZ3). Kind of experiment: co-IP; THP-1 cells stably expressing His-POP2, LPS-primed (16 h) and nigericin-treated (45 min); sepharose-immobilized ASC antibody, 16 h at 4 °C; 50 mM HEPES pH 7.4, 150 mM NaCl, 10% glycerol, 2 mM EDTA, 0.5% Triton X-100; immunoblot.

These results are taken from article PMC5465353.

Results are given in words; binding and its absence hold for the method and conditions named. Binding seen in cells or lysates may run through a third protein. Some binding calls cover weakened binding; strength is not graded here. Sequences can lack the tags named with a protein.

On to “ASC (human, endogenous in THP-1 cells) (from UniProt Q9ULZ3 1-195)”, for which the binding result with GST-POP2 (human) is on record as “binds”.

B1: His-POP2 (protein, UniProt Q56P42 1-97)
chain: T1 sequence
B1: the binding entry in experiment [1] is “binds”.
